The other results are listed elsewhere or left out. Further columns of the screen follow, without active or inactive calls. Compounds called inactive in the main read-out are mostly missing here.
assay: blockers of dexamethasone-driven GR-EGFP nuclear import – imaging, high-content imaging, GR-EGFP cells, confirmation (AID 463116); conditions: 3617.4 GR-EGFP nuclear translocation imaging, dexamethasone-induced; measured here: cell count per field; at 20 µM

| SMILES | z-score |
| --- | --- |
| CCCn1nc([N+](=O)[O-])c(C(C#N)c2nc3ccccc3s2)c(Cl)c1=O (stereo not given) | 0.912 |
| O=C(NCc1cccnc1)/C(=C\c1ccc(-c2ccc(Br)cc2)o1)S(=O)(=O)c1ccccc1 | 0.0511 |
| N#Cc1nccnc1S(=O)(=O)c1cccs1 | -1.13 |
| O=C1c2ccccc2-c2onc3ccc(NCc4ccco4)c1c23 | -0.405 |
| ClCc1nnc(-c2cc3c(s2)CCCC3)o1 | 0.0278 |
| Cn1ncc(S(=O)(=O)Cc2ccccc2)c(Cl)c1=O | -0.0555 |
| COc1cccc(-n2nnnc2S(C)(=O)=O)c1 | -0.107 |
| O=[N+]([O-])c1ccc(-n2nnnc2-c2ccccc2)c([N+](=O)[O-])c1 | 0.264 |
| CCn1c(=O)cc(C(=O)OC)sc1=Nc1ccc(F)c(F)c1 | -0.181 |
| Cc1[nH]c2ccccc2c1CN1CCc2ccccc2C1 | 0.335 |
| COC(=O)C1=C(C)N(CCC2=CCCCC2)C(=O)C1 | -0.202 |
| CCOc1cc(/C=C2/COc3ccccc3C2=O)ccc1OCC(=O)N(C)C | 0.201 |
| N#CC(C#N)=C1C=C2C=C(N3CCCCC3)CCC2CC1 (stereo not given) | 0.505 |
| O=C(CCl)Nc1ccc(N2CCCCCC2)cc1 | -0.177 |
| CC(C)N=c1scc(-c2cccs2)n1/N=C/c1ccc(O)c(O)c1O | 0.315 |
| C=CCNCCCOc1ccc(Cl)cc1C(C)(C)C | -0.773 |
| CC(=O)/C=C/n1c(=S)oc2ccccc21 | -0.152 |
| COc1ccc(C2=CC(=O)N(Nc3ccccc3)C2=O)cc1 | 0.228 |
| Cc1ncc(CCl)c2c1OC(C)(C)OC2 | 0.375 |
| CC(=O)Nc1sc(/C(C#N)=C\c2cccc(Cl)c2)nc1-c1ccc(C)cc1 | -0.703 |
| Cc1ccc(SC(=O)c2c(C)noc2-c2cc(C)on2)cc1 | -0.185 |
| O=C1CCCC(O)=C1C(C#Cc1ccccc1)C1=C(O)CCCC1=O | 0.686 |
| Cc1ccccc1NC(=O)COC(=O)c1ccc(S(C)(=O)=O)c([N+](=O)[O-])c1 | 0.408 |
| CN(C)c1ccc(/C=C2\CCC/C(=C\c3ccccc3)C2=O)cc1 | 0.395 |

Retrieved by compound from the entries so far:

| SMILES | z-score |
| --- | --- |
| CC(=O)/C=C/n1c(=S)oc2ccccc21 | -0.152 |
| C=CCNCCCOc1ccc(Cl)cc1C(C)(C)C | -0.773 |

Next results.

| SMILES | z-score |
| --- | --- |
| CC(C)C(=O)N1CCN(c2ccc(NC(=O)c3ccc([N+](=O)[O-])o3)cc2Cl)CC1 | 0.485 |
| Cc1cc(C)cc(N=Cc2[nH]c3ccc(Br)c(Cl)c3c2O)c1 | 0.167 |
| COc1cc(N2C(=O)C=CC2=O)c(OC)cc1Cl | -1.86 |
| Fc1ccc(CNc2nc(-c3ccco3)cc(C(F)(F)F)n2)cc1 | 1.23 |
| CCOC(=O)c1c(-c2ccc(C)cc2)csc1NC(=O)/C(C#N)=C/c1ccc(O)c(OC)c1 | 0.248 |
| COC(=O)c1cc(=O)n(Cc2ccco2)c(=Nc2ccc(F)c(Cl)c2)s1 | 0.235 |
| COc1ccc(-c2cc(C(F)(F)F)nc(S(C)(=O)=O)n2)cc1 | -0.0975 |
| CCOC(=O)/C(=C\c1cccnc1)C(=O)c1cc(C(C)=O)c(Nc2ccccc2)s1 | 0.172 |
| Cc1nc(SC2CC(=O)N(c3ccccc3)C2=O)n[nH]1 (stereo not given) | -0.0695 |
| CCN(CC)c1ccc(/C=N/NC(=O)C(O)(c2ccccc2)c2ccccc2)o1 | -0.278 |
| Cc1ccccc1CS(=O)(=O)c1nnc([C@H](CC(C)C)NC(=O)OC(C)(C)C)o1 | 0.00937 |
| Cn1cc([N+](=O)[O-])c(C(=O)Nc2cc(Oc3ccccc3)cc([N+](=O)[O-])c2)n1 | 0.28 |
| Cc1nc([N+](=O)[O-])c(Br)n1Cc1ccc(Cl)c(Cl)c1 | -0.463 |
| O=C(NCc1cccnc1)/C(=C/c1ccc(-c2cccc(Cl)c2)o1)S(=O)(=O)c1ccccc1 | 0.262 |
| CCSc1nnc(-c2sc3nnc(-c4ccccc4)c(-c4ccccc4)c3c2N)o1 | 0.224 |
| Nc1c(C(=O)C2CC2)sc2nc(-c3ccccc3)cc(C(F)(F)F)c12 | 0.041 |
| CCOC(=O)CSC1=NC(=O)/C(=C/c2ccc(Br)cc2)S1 | 0.936 |
| Cc1cccc(NC(=O)CN2C(=O)N/C(=C/c3ccc(C)s3)C2=O)c1 | 0.722 |
| O=C1C(Cl)=C(NCCN2CCCCC2)C(=O)c2ccccc21 | -0.334 |
| Cc1ccc(C(C[N+](=O)[O-])n2nc(C)cc2C)cc1 (stereo not given) | -1.61 |
| CSC(SC)=C(C#N)C(=O)c1ccccc1 | 0.472 |
| O=[N+]([O-])c1ccc(N/N=C/c2cn(Cc3ccc(F)cc3)c3ccccc23)nc1 | 0.522 |
| N#C/C(=C/c1ccc(N2CCCCCC2)o1)c1ccc(Cl)cc1 | 0.321 |
| O=[N+]([O-])c1ccc(C=Nc2ccc(Cl)c([N+](=O)[O-])c2)s1 | 0.206 |

A portion from further up, as a working copy:

| SMILES | z-score |
| --- | --- |
| N#C/C(=C/c1ccc(N2CCCCCC2)o1)c1ccc(Cl)cc1 | 0.321 |
| O=[N+]([O-])c1ccc(C=Nc2ccc(Cl)c([N+](=O)[O-])c2)s1 | 0.206 |

Going on with the list.

| SMILES | z-score |
| --- | --- |
| CCN(CC)Cc1cc(O)c(CN(CC)CC)cc1O | 0.27 |
| Cc1nc([N+](=O)[O-])c(Br)n1CC(=O)c1ccccc1 | 0.378 |
| N#C/C(=C\c1sc(N2CCOCC2)nc1-c1ccccc1)C(=O)Nc1cccc2ccccc12 | 0.159 |
| CC(C)Cn1c([N+](=O)[O-])nc2c1c(=O)[nH]c(=O)n2C | 0.365 |
| Cc1cc(C(=O)CCl)c(C)n1CCc1ccc(Cl)cc1 | 0.517 |
| CCOC(=O)/C(=C/C=C1\Sc2cc(C)c(C)cc2N1CC)C(C)=O | 0.415 |
| Cc1sc(NC(=O)CCl)c(C(=O)c2ccccc2)c1C | 0.138 |
| Cc1cc2oc(=O)cc(Cn3ncc(Cl)c(Cl)c3=O)c2cc1Cl | -0.331 |
| CCCNC(=O)Cn1sc2nc(C)cc(C)c2c1=O | -0.751 |
| CCOC(=O)/C(=C\C=C1/Sc2cc(OCC)c(OCC)cc2N1CC)C(C)=O | -0.3 |
| Cc1cc(Cl)n2c(nc3cc(F)c(F)cc32)c1C#N | -0.457 |
| COc1ccc(C(=O)n2nc(-c3ccco3)nc2SC)cc1OC | 0.796 |
| CCOC(=O)C=C(C(=O)OCC)C(=O)OCC | -0.0898 |
| COc1ccccc1-[n+]1c(C)cc(/C=C2\Sc3ccccc3N2C)cc1C | -0.758 |
| CCN1C/C(=C/c2ccc(N3CCOCC3)cc2)C(=O)/C(=C/c2ccc(N3CCOCC3)cc2)C1 | -0.486 |
| Cc1cc(C)c2c(=O)n(CC(=O)NC3CCCC3)sc2n1 | 0.131 |
| CC(=O)OCCCNc1cc(Sc2ccc(Cl)cc2)c2nonc2c1[N+](=O)[O-] | -0.19 |
| Cc1ccc(-n2nnnc2Sc2ccc(S(=O)(=O)NCCN(C)C)cc2[N+](=O)[O-])cc1 | 0.731 |
| CCOc1ccc(-n2c(C)cc(C(=O)CCl)c2C)cc1 | -0.0309 |
| CCC(=O)N1CCN(c2ccc(NC(=O)c3ccc([N+](=O)[O-])o3)cc2Cl)CC1 | 0.0525 |
| COc1ccc(-n2c(C)cc(C(=O)CCl)c2C)cc1 | 0.308 |
| Cn1c(=O)c(NCCO)c2c3c(cccc31)C(=O)c1ccccc1-2 | 0.742 |

— PubChem BioAssay AID463116 (University of Pittsburgh Molecular Library Screening Center, 2010)
